This is one part of the list.
Columns and labels:
Assay in all cases: log2 fold change, soluble protein after heating vs DMSO (PISA); higher = thermal stabilisation; K562 lysate, 10 uM; active = over 0.2 and 3.5 SD of the protein, either way, in both replicates (recomputed)
[1] = compound: C#Cc1cccc(Nc2ncnc3cc(OCCOC)c(OCCOC)cc23)c1 [erlotinib]
How it was run: (§1)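 Pellets of K562 cells were dounce-homogenised in PBS pH 7.4 with 1 mM MgCl2, and the crude extract was held at 1 mg/mL protein for a 30 min treatment with 10 μM compound. Aliquots were heated for 3 min over 48°C-58°C and pooled before NP-40 was added to 0.5% at 4°C. The supernatant from 21,000xg for 90 min was quantified by TMTpro 16plex LC-MS/MS with channel sums equalised. Values are reported from duplicates as log-two fold change in thermal stability relative to solvent controls.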

By UniProt entry, the sequences of proteins in these tests, tags left out. Where a name states a change or a piece, a line headed by the entry shows the natural chain unless it says otherwise.
UniProt P20073: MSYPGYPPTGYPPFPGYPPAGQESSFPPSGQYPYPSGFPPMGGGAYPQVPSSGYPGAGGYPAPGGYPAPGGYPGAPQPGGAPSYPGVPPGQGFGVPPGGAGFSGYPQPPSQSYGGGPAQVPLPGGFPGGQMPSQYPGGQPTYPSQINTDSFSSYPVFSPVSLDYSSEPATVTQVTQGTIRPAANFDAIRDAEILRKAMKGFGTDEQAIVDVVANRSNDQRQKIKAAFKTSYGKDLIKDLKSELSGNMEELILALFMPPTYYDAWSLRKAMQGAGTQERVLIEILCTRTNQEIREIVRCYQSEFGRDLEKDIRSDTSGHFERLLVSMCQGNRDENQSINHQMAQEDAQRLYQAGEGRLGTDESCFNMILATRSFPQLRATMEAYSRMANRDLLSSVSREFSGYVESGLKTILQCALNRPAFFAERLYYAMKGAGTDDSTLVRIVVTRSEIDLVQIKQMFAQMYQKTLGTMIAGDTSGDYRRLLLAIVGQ
UniProt Q9NP73: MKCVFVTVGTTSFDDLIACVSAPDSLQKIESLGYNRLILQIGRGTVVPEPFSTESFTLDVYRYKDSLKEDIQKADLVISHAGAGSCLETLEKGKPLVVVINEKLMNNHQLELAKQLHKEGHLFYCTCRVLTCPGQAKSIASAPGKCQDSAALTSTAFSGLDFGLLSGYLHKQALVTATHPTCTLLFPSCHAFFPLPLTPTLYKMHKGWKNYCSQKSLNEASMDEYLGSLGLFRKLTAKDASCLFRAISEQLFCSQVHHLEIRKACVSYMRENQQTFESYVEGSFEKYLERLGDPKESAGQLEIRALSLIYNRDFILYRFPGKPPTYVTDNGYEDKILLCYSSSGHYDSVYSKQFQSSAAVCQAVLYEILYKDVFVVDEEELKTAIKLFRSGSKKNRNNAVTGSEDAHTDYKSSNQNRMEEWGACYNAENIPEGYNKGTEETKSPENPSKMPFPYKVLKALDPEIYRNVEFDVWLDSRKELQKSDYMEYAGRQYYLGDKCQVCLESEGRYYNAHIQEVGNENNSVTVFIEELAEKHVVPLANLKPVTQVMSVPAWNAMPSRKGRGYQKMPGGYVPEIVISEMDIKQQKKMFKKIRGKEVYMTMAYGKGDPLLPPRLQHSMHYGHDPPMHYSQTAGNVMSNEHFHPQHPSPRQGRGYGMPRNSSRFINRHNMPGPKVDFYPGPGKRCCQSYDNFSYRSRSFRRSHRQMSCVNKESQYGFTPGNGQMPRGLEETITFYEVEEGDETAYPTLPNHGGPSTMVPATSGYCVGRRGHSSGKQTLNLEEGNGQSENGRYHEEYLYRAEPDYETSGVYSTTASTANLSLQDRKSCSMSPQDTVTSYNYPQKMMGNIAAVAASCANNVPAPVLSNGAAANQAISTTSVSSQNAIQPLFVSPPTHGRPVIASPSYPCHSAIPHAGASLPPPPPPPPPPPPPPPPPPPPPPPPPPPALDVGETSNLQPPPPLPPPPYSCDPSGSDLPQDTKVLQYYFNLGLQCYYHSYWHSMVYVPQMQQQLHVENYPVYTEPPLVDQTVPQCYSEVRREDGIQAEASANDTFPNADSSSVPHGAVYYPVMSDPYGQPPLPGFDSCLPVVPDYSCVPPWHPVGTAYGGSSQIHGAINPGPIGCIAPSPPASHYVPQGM
UniProt Q86W34: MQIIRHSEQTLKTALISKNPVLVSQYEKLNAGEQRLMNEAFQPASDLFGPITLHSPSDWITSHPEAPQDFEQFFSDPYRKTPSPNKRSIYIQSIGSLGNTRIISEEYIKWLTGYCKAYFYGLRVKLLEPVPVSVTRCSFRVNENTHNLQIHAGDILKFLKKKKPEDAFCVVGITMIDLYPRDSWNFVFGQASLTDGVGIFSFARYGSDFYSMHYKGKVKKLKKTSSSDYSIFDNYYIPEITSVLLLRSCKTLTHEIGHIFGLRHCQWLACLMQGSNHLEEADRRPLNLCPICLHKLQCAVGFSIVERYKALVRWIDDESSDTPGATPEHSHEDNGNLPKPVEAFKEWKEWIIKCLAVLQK
UniProt Q96NW4, whole entry, looked up: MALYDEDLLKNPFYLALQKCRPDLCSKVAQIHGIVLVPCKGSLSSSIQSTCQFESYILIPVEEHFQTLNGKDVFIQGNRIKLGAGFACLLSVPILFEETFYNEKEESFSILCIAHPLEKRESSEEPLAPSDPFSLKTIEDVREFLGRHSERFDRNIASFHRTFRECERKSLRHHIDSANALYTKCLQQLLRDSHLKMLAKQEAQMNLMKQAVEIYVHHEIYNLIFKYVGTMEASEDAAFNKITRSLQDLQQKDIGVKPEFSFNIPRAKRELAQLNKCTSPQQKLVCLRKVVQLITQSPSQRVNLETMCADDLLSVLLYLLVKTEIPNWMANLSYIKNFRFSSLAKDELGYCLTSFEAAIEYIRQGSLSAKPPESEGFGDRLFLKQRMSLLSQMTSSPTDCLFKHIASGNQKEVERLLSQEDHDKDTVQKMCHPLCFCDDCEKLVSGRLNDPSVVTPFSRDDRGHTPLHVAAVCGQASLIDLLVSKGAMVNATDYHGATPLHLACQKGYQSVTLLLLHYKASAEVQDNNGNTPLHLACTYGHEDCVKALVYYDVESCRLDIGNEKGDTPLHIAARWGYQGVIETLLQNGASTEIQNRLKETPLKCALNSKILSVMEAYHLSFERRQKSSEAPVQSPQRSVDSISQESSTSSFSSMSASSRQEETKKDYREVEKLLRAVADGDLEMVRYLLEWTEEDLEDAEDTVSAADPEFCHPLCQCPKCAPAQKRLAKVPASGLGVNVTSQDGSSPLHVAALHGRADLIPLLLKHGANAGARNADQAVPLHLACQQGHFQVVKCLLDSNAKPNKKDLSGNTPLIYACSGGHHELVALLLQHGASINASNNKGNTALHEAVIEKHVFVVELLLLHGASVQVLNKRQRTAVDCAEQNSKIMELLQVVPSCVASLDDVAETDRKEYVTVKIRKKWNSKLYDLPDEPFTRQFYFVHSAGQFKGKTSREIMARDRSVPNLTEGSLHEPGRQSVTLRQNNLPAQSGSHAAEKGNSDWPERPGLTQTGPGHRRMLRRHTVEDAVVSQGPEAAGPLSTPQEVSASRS
UniProt Q9P2R3: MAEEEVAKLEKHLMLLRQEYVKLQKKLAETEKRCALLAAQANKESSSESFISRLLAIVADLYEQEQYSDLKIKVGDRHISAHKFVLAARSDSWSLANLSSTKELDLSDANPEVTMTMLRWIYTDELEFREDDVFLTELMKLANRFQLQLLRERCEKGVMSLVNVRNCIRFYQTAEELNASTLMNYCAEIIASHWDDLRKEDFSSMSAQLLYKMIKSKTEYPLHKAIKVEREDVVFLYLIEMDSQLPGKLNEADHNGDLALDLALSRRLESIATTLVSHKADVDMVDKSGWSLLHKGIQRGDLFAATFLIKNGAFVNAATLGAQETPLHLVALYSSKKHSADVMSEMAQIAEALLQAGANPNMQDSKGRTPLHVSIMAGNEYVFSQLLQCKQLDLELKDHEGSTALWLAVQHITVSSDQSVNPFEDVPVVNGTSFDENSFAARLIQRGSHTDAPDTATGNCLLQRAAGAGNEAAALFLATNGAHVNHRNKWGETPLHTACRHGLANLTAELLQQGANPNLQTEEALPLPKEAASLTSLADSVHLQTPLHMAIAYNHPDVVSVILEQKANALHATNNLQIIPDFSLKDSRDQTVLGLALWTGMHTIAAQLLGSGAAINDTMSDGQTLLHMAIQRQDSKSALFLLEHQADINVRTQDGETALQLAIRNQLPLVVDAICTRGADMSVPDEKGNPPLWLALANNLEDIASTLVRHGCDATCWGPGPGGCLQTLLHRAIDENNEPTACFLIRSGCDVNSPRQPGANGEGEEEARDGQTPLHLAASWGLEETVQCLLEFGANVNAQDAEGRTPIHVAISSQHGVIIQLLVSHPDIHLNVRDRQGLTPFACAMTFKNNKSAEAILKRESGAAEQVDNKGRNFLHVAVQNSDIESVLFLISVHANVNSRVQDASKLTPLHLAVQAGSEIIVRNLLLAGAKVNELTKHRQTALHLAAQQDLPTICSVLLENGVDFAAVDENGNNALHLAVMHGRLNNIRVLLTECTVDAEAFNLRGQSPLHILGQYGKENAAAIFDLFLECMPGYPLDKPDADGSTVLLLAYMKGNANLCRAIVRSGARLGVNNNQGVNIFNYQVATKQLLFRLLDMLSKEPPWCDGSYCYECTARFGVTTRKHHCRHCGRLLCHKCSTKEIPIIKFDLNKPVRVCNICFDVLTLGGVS
UniProt P30837: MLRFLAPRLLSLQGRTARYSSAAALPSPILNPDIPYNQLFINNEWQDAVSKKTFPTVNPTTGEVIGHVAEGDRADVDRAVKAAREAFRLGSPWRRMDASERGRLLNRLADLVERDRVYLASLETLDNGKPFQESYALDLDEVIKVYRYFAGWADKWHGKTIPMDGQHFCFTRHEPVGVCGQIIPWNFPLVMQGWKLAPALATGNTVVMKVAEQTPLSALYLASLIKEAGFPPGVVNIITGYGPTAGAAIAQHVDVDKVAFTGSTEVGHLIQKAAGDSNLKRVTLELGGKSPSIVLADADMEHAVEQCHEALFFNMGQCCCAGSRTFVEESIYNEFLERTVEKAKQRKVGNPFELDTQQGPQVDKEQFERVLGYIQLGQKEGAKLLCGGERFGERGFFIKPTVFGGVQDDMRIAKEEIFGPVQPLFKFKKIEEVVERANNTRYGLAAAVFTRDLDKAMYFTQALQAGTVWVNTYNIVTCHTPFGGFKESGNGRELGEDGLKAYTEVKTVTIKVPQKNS
UniProt Q13367: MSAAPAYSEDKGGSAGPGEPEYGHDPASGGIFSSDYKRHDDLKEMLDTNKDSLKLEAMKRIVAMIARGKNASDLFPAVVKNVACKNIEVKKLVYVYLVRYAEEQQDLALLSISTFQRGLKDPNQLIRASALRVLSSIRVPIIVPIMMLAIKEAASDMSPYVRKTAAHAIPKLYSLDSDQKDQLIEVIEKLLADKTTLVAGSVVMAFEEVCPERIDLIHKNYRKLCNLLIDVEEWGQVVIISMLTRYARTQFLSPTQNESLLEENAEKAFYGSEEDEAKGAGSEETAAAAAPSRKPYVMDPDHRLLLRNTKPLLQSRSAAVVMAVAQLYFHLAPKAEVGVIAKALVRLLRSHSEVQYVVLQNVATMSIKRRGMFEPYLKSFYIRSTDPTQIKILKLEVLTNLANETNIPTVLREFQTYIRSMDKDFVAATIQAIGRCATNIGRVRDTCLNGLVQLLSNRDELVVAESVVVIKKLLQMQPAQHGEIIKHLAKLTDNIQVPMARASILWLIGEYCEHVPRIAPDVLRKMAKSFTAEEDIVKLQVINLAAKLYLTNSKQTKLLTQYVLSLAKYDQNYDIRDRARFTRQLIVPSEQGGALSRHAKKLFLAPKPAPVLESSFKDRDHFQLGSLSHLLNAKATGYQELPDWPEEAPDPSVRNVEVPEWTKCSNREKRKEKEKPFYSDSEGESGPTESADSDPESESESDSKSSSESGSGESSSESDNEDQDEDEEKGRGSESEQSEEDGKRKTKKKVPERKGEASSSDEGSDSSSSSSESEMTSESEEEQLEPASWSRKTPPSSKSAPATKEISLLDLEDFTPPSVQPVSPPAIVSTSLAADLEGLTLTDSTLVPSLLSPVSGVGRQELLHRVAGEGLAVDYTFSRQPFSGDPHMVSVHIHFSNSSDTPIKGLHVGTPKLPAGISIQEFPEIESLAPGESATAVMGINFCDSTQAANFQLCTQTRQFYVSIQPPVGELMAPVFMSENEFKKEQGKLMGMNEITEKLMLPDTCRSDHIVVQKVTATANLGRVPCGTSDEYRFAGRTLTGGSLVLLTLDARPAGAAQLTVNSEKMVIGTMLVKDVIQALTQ
UniProt Q9H8Y5: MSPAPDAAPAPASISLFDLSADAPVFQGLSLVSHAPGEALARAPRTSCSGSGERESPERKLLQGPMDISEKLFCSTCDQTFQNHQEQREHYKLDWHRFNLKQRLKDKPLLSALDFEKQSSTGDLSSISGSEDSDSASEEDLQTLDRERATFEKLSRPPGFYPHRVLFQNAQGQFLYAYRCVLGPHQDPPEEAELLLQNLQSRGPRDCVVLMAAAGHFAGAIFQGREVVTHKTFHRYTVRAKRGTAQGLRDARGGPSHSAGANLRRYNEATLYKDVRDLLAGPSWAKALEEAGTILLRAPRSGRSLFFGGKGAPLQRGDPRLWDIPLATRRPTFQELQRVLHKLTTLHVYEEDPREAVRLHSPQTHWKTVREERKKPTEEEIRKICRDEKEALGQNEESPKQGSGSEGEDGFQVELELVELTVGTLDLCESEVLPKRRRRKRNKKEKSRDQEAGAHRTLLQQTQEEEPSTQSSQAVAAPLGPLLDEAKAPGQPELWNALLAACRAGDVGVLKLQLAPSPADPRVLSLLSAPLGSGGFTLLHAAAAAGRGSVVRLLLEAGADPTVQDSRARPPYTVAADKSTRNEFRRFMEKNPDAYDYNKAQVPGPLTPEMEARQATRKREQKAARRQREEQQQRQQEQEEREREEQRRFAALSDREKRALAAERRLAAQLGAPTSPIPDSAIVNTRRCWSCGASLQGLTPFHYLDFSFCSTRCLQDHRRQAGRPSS

[2] = compound: C/C(=N\NC(=O)C1=CC(=CC=C1)S(=O)(=O)N2CCOCC2)/C3=C(C=CC(=C3)Cl)O
How it was run: as §1

[3] = compound: C1=CC(=CC=C1C2=NC3=C(N2)C=C(C=C3)C(=O)N)OC4=CC=C(C=C4)Cl
How it was run: as §1

[4] = compound: C1=CC2=C(C=CC(=C2)/C=C\3/C(=O)NC(=NCC4=CC=CS4)S3)N=C1
How it was run: as §1

[5] = compound: C1=CC2=NC=CN=C2C=C1/C=C/3\C(=O)NC(=O)S3
How it was run: as §1

[6] = compound: C1=CC=C(C=C1)C2=NC(=C(N2)C3=CC=NC=C3)C4=CC(=C(C=C4)Cl)O
How it was run: as §1

[7] = compound: C1=CC=C2C(=C1)C3=NNC4=CC=CC(=C43)C2=O
How it was run: as §1

[8] = compound: C1CCN(C1)C(=O)NC2=CC=CC(=C2)NC3=NC=C(C(=N3)NCCC4=CN=CN4)Br
How it was run: as §1

[9] = compound: C1CN(CCC1(CC2=CC=C(C=C2)Cl)N)C3=NC=NC4=C3C=CN4
How it was run: as §1

[10] = compound: C1COCCN1CCN2C3=CC=CC=C3N=C2NC(=O)C4=CC(=CC=C4)[N+](=O)[O-] [IRAK-1-4 Inhibitor I]
How it was run: as §1

Row | Target | log2 fold change [1] | log2 fold change [2] | log2 fold change [3] | log2 fold change [4] | log2 fold change [5] | log2 fold change [6] | log2 fold change [7] | log2 fold change [8] | log2 fold change [9] | log2 fold change [10]
1 | ANPEP (UniProt P15144) | inactive: -0.037 | inactive: -0.078 | inactive: -0.056 | inactive: -0.152 | inactive: -0.086 | inactive: 0 | inactive: -0.001 | inactive: 0.08 | inactive: -0.026 | inactive: 0.031
2 | ANKRD13D isoform 3 (UniProt Q6ZTN6) | inactive: -0.045 | inactive: 0.284 | inactive: -0.043 | inactive: 0.325 | inactive: 0.124 | inactive: 0.123 | inactive: -0.158 | inactive: -0.035 | inactive: 0.144 | inactive: -0.098
3 | ANXA7 (UniProt P20073) | inactive: -0.012 | inactive: 0.007 | inactive: 0.013 | inactive: 0.005 | inactive: -0.006 | inactive: 0.004 | inactive: -0.013 | inactive: 0 | inactive: 0.007 | inactive: -0.004
4 | ALG13 (UniProt Q9NP73) | inactive: 0.022 | inactive: -0.014 | inactive: 0.049 | inactive: -0.008 | inactive: -0.048 | inactive: 0.047 | inactive: -0.032 | inactive: -0.01 | inactive: 0.083 | inactive: -0.02
5 | ANKRD26 (UniProt Q9UPS8) | inactive: -0.013 | inactive: -0.334 | inactive: 0.026 | inactive: 0.134 | inactive: -0.111 | inactive: -0.031 | inactive: -0.341 | inactive: 0.074 | inactive: -0.17 | inactive: 0.269
6 | AMPD3 isoform 4 (UniProt Q01432) | inactive: 0 | inactive: 0.048 | inactive: 0.031 | inactive: 0.007 | inactive: -0.072 | inactive: -0.004 | inactive: 0.027 | inactive: -0.002 | inactive: -0.002 | inactive: 0.015
7 | ALG1 (UniProt Q9BT22) | inactive: -0.031 | inactive: -0.007 | inactive: 0.066 | inactive: 0.028 | inactive: 0.051 | inactive: -0.047 | inactive: 0.066 | inactive: 0 | inactive: 0.063 | inactive: 0.042
8 | ALKBH2 (UniProt Q6NS38) | inactive: 0.025 | inactive: -0.023 | inactive: -0.031 | inactive: -0.024 | inactive: 0.008 | inactive: -0.047 | inactive: -0.073 | inactive: 0.015 | inactive: 0.04 | inactive: -0.01
9 | AP2B1 isoform 2 (UniProt P63010) | inactive: 0.005 | inactive: 0.004 | inactive: -0.001 | inactive: -0.001 | inactive: -0.029 | inactive: 0.001 | inactive: -0.06 | inactive: -0.026 | inactive: 0.029 | inactive: 0.011
10 | ANAPC2 (UniProt Q9UJX6) | inactive: 0.04 | inactive: -0.054 | inactive: -0.021 | inactive: 0.025 | inactive: 0.07 | inactive: 0.001 | inactive: -0.026 | inactive: -0.012 | inactive: 0.05 | inactive: 0.012
11 | AP1S2 isoform 2 (UniProt P56377) | inactive: -0.072 | inactive: -0.095 | inactive: -0.088 | inactive: 0.024 | inactive: -0.017 | inactive: -0.007 | inactive: 0.037 | inactive: -0.019 | inactive: -0.022 | inactive: 0.003
12 | ALKBH8 isoform 4 (UniProt Q96BT7) | inactive: -0.047 | inactive: -0.099 | inactive: 0.017 | inactive: 0.054 | inactive: -0.056 | inactive: 0.012 | inactive: -0.025 | inactive: 0.144 | inactive: -0.019 | inactive: 0.04
13 | ANKRD30B (UniProt Q9BXX2) | inactive: 0.077 | inactive: 0.106 | inactive: -0.053 | inactive: -0.115 | inactive: 0.005 | inactive: -0.032 | inactive: -0.047 | inactive: -0.006 | inactive: 0.124 | inactive: 0.095
14 | AMZ2 (UniProt Q86W34) | inactive: -0.019 | inactive: 0.044 | inactive: 0.012 | inactive: -0.009 | inactive: 0.127 | inactive: -0.012 | inactive: 0.015 | inactive: 0.061 | inactive: -0.016 | inactive: 0.023
15 | ALDH5A1 isoform 2 (UniProt P51649) | inactive: -0.005 | inactive: 0.045 | inactive: 0.024 | inactive: -0.009 | inactive: 0.006 | inactive: 0.013 | inactive: -0.026 | inactive: -0.013 | inactive: -0.002 | inactive: -0.012
16 | ANKRD27 (UniProt Q96NW4) | inactive: 0.087 | inactive: -0.025 | inactive: 0.07 | inactive: 0.04 | inactive: -0.033 | inactive: 0.02 | inactive: -0.094 | inactive: -0.036 | inactive: 0 | inactive: 0.014
17 | AKT2 (UniProt P31751) | inactive: -0.011 | inactive: 0.082 | inactive: -0.013 | inactive: -0.005 | inactive: -0.022 | inactive: -0.025 | inactive: 0.009 | inactive: -0.014 | inactive: -0.017 | inactive: -0.045
18 | AP2S1 (UniProt P53680) | inactive: -0.032 | inactive: -0.037 | inactive: -0.026 | inactive: 0.01 | inactive: 0.003 | inactive: 0.014 | inactive: -0.051 | inactive: -0.043 | inactive: -0.052 | inactive: -0.01
19 | ANP32A (UniProt P39687) | inactive: -0.147 | inactive: 0.075 | inactive: -0.199 | inactive: -0.012 | inactive: 0.012 | inactive: 0.006 | inactive: 0.018 | inactive: 0.026 | inactive: -0.008 | inactive: 0.013
20 | ANKFY1 isoform 4 (UniProt Q9P2R3) | inactive: 0.023 | inactive: 0.006 | inactive: -0.008 | inactive: -0.003 | inactive: -0.001 | inactive: 0.005 | inactive: -0.022 | inactive: 0.029 | inactive: 0.003 | inactive: 0.001
21 | ALDH1B1 (UniProt P30837) | inactive: -0.064 | inactive: 0.027 | inactive: -0.035 | inactive: -0.004 | inactive: 0.031 | inactive: 0.009 | active: 0.262 | inactive: -0.025 | inactive: 0.048 | inactive: 0.038
22 | AP3B2 isoform 4 (UniProt Q13367) | inactive: -0.021 | inactive: 0.026 | inactive: 0.027 | inactive: 0.033 | inactive: 0.016 | inactive: -0.01 | inactive: -0.029 | inactive: -0.062 | inactive: 0.008 | inactive: 0.002
23 | ALDH4A1 (UniProt P30038) | inactive: 0.039 | inactive: 0.045 | inactive: 0.031 | inactive: -0.048 | inactive: 0.046 | inactive: -0.001 | inactive: -0.013 | inactive: -0.012 | inactive: 0.03 | inactive: -0.06
24 | ALDH1L2 (UniProt Q3SY69) | inactive: 0.005 | inactive: 0.025 | inactive: 0.011 | inactive: 0.037 | inactive: -0.02 | inactive: -0.004 | inactive: -0.064 | inactive: -0.018 | inactive: 0.024 | inactive: -0.011
25 | ANKRD28 (UniProt O15084) | inactive: 0.032 | inactive: -0.022 | inactive: -0.01 | inactive: 0.007 | inactive: 0.017 | inactive: 0.014 | inactive: -0.009 | inactive: -0.026 | inactive: -0.018 | inactive: 0
26 | ANKZF1 (UniProt Q9H8Y5) | inactive: 0.016 | inactive: -0.041 | inactive: -0.013 | inactive: 0.046 | inactive: -0.037 | inactive: 0.001 | inactive: 0.017 | inactive: -0.003 | inactive: 0.034 | inactive: -0.022
27 | AP3M1 (UniProt Q9Y2T2) | inactive: 0.003 | inactive: -0.135 | inactive: -0.018 | inactive: 0.009 | inactive: -0.018 | inactive: 0 | inactive: 0.019 | inactive: -0.004 | inactive: -0.007 | inactive: -0.014
28 | ANKS1A (UniProt Q92625) | inactive: 0.049 | inactive: 0.428 | inactive: -0.041 | inactive: -0.017 | inactive: -0.037 | inactive: 0.01 | inactive: -0.014 | inactive: 0.026 | inactive: 0.009 | inactive: 0.006
29 | ALAD (UniProt P13716) | inactive: -0.004 | inactive: -0.072 | inactive: 0.046 | inactive: -0.07 | inactive: 0.005 | inactive: 0.01 | inactive: 0.024 | inactive: -0.027 | inactive: 0.055 | inactive: 0.015

Reprinted from the results shown for reference:
Row | Target | log2 fold change [1] | log2 fold change [2] | log2 fold change [3] | log2 fold change [4] | log2 fold change [5] | log2 fold change [6] | log2 fold change [7] | log2 fold change [8] | log2 fold change [9] | log2 fold change [10]
5 | ANKRD26 (UniProt Q9UPS8) | inactive: -0.013 | inactive: -0.334 | inactive: 0.026 | inactive: 0.134 | inactive: -0.111 | inactive: -0.031 | inactive: -0.341 | inactive: 0.074 | inactive: -0.17 | inactive: 0.269
6 | AMPD3 isoform 4 (UniProt Q01432) | inactive: 0 | inactive: 0.048 | inactive: 0.031 | inactive: 0.007 | inactive: -0.072 | inactive: -0.004 | inactive: 0.027 | inactive: -0.002 | inactive: -0.002 | inactive: 0.015
7 | ALG1 (UniProt Q9BT22) | inactive: -0.031 | inactive: -0.007 | inactive: 0.066 | inactive: 0.028 | inactive: 0.051 | inactive: -0.047 | inactive: 0.066 | inactive: 0 | inactive: 0.063 | inactive: 0.042
8 | ALKBH2 (UniProt Q6NS38) | inactive: 0.025 | inactive: -0.023 | inactive: -0.031 | inactive: -0.024 | inactive: 0.008 | inactive: -0.047 | inactive: -0.073 | inactive: 0.015 | inactive: 0.04 | inactive: -0.01
9 | AP2B1 isoform 2 (UniProt P63010) | inactive: 0.005 | inactive: 0.004 | inactive: -0.001 | inactive: -0.001 | inactive: -0.029 | inactive: 0.001 | inactive: -0.06 | inactive: -0.026 | inactive: 0.029 | inactive: 0.011
10 | ANAPC2 (UniProt Q9UJX6) | inactive: 0.04 | inactive: -0.054 | inactive: -0.021 | inactive: 0.025 | inactive: 0.07 | inactive: 0.001 | inactive: -0.026 | inactive: -0.012 | inactive: 0.05 | inactive: 0.012
11 | AP1S2 isoform 2 (UniProt P56377) | inactive: -0.072 | inactive: -0.095 | inactive: -0.088 | inactive: 0.024 | inactive: -0.017 | inactive: -0.007 | inactive: 0.037 | inactive: -0.019 | inactive: -0.022 | inactive: 0.003
12 | ALKBH8 isoform 4 (UniProt Q96BT7) | inactive: -0.047 | inactive: -0.099 | inactive: 0.017 | inactive: 0.054 | inactive: -0.056 | inactive: 0.012 | inactive: -0.025 | inactive: 0.144 | inactive: -0.019 | inactive: 0.04
13 | ANKRD30B (UniProt Q9BXX2) | inactive: 0.077 | inactive: 0.106 | inactive: -0.053 | inactive: -0.115 | inactive: 0.005 | inactive: -0.032 | inactive: -0.047 | inactive: -0.006 | inactive: 0.124 | inactive: 0.095
